Results deposited as PubChem BioAssay AID743121 (NCATS, 2013)
Shown is one part, drawn at random, of about 26,000 reagents. 167 of all reagents (0.63%) were called active. 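Calls are per gene from RSA p-values that are not deposited; an individual active-marked siRNA can sensitise only weakly.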 Further read-outs or replicates are left out here.

- Purpose: 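Partners whose loss is lethal together with topoisomerase I blockade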 (primary screen)
- System: MDA-MB-231 cells, a human breast cancer line
- Reagents: single siRNA against human genes, 20 nM siRNA (0.8 pmol per well)
- Duration: 120 h (drug added 48 h after transfection, read 72 h later)
- Conditions: camptothecin 20 nM (about EC30) for 72 h; vehicle 0.1% DMSO in parallel plates
- Measurement: 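Cell viability by ATP luminescence (CellTiter-Glo) as % of non-targeting siRNA wells, and the log2 ratio of viability without drug over viability with camptothecin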
- Reading the numbers: log2 vehicle/camptothecin viability: higher = stronger sensitisation to camptothecin; viability with camptothecin: higher = more viable cells
- Active means: 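Active genes have an RSA gene-level p-value below 0.001, computed from the ratios of their separate siRNAs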

| log2 vehicle/camptothecin viability | viability with camptothecin (% of control) | Call | gene | PubChem SID |
| --- | --- | --- | --- | --- |
| -0.594 | 77.3 | inactive | KNG1 | SID164372965 |
| 0.11 | 56.6 | inactive | KNG1 | SID164372966 |
| -0.262 | 96.3 | inactive | KNG1 | SID164372967 |
| -0.578 | 75.2 | inactive | KNG1 | SID164372968 |
| -0.0406 | 114 | inactive | IL13RA2 | SID164371440 |
| -0.0212 | 73.1 | inactive | IL13RA2 | SID164371441 |
| 0.166 | 68.2 | inactive | IL13RA2 | SID164371446 |
| -0.447 | 112 | inactive | SREBF1 | SID164389709 |
| 0.459 | 50.7 | inactive | SREBF1 | SID164389712 |
| -0.505 | 66.8 | inactive | SREBF1 | SID164389713 |
| 0.281 | 40 | inactive | SREBF1 | SID164389714 |
| -0.0681 | 81.8 | inactive | CR2 | SID164359637 |
| 0.416 | 59.2 | inactive | CR2 | SID164359638 |
| -0.0243 | 50.6 | inactive | CR2 | SID164359641 |
| -0.145 | 131 | inactive | CR2 | SID164359643 |
| 0.0874 | 52.1 | inactive | JUND | SID164372236 |
| -0.447 | 40.7 | inactive | JUND | SID164372237 |
| -0.499 | 74 | inactive | JUND | SID164372240 |
| -0.305 | 19.1 | inactive | JUND | SID164372241 |
| -0.0204 | 104 | inactive | F2 | SID164364040 |
| -0.218 | 79.8 | inactive | F2 | SID164364042 |
| 0.2 | 80.7 | inactive | F2 | SID164364045 |
| -0.332 | 139 | inactive | ADGRA2 | SID164458000 |
| 1.43 | 21.8 | inactive | ADGRA2 | SID164458001 |
| 0.113 | 68.1 | inactive | ADGRA2 | SID164458006 |
| 0.0938 | 66.7 | inactive | ADGRA2 | SID164458008 |
| -0.333 | 61.2 | inactive | MTMR12 | SID164479355 |
| -0.0157 | 79.1 | inactive | MTMR12 | SID164479358 |
| -0.217 | 46.6 | inactive | MTMR12 | SID164479360 |
| -0.0458 | 70.5 | inactive | MTMR12 | SID164479362 |
| -0.299 | 91.9 | inactive | PRSS22 | SID164500914 |
| -0.0618 | 64.4 | inactive | PRSS22 | SID164500916 |
| 1.55 | 30.3 | inactive | PRSS22 | SID164500917 |
| 0.168 | 79.5 | inactive | PRSS22 | SID164500919 |
| -0.49 | 64.7 | inactive | CFTR | SID164358112 |
| -0.0911 | 96.8 | inactive | CFTR | SID164358113 |
| -0.147 | 108 | inactive | CFTR | SID164358115 |
| -0.23 | 78.4 | inactive | CFTR | SID164358118 |
| -0.00836 | 72.8 | inactive | MCCC2 | SID164501050 |
| 1.12 | 35.3 | inactive | MCCC2 | SID164501051 |
| 0.788 | 52.1 | inactive | MCCC2 | SID164501053 |
| -0.277 | 85.4 | inactive | MCCC2 | SID164501054 |
| 0.342 | 43.1 | inactive | GLG1 | SID164366706 |
| -0.0352 | 97.3 | inactive | GLG1 | SID164366708 |
| 0.124 | 45.8 | inactive | GLG1 | SID164366709 |
| -0.08 | 100 | inactive | GLG1 | SID164366711 |
| -0.0851 | 76.7 | inactive | NHLRC2 | SID164672794 |
| -0.25 | 106 | inactive | NHLRC2 | SID164672795 |
| -0.554 | 73.4 | inactive | NHLRC2 | SID164672798 |
| -0.197 | 101 | inactive | NHLRC2 | SID174315990 |
| -0.524 | 81.2 | inactive | DHRS7B | SID164458129 |
| -0.314 | 88.3 | inactive | DHRS7B | SID164458132 |
| -0.419 | 75.2 | inactive | DHRS7B | SID164458133 |
| -0.138 | 72 | inactive | DHRS7B | SID174315916 |
| -0.328 | 46.6 | inactive | TMEM158 | SID164457681 |
| 0.0289 | 92.6 | inactive | TMEM158 | SID164457682 |
| 0.207 | 36.6 | inactive | TMEM158 | SID164457683 |
| 0.133 | 13.4 | inactive | TMEM158 | SID164457684 |
| -0.0825 | 98.5 | inactive | KDM1A | SID164445111 |
| 0.0184 | 93.9 | inactive | KDM1A | SID164445112 |
| 0.209 | 75.2 | inactive | KDM1A | SID164445113 |
| -0.164 | 98.9 | inactive | KDM1A | SID164445117 |
| -0.276 | 64.9 | inactive | LIFR | SID164373830 |
| -0.0428 | 108 | inactive | LIFR | SID164373833 |
| -0.207 | 65.8 | inactive | LIFR | SID164373834 |
| 0.214 | 25.5 | inactive | LIFR | SID164373835 |
| 0.593 | 23.1 | inactive | ALOX15B | SID164353125 |
| -0.291 | 93.7 | inactive | ALOX15B | SID164353128 |
| -0.369 | 69.8 | inactive | ALOX15B | SID164353129 |
| -0.281 | 21.6 | inactive | ALOX15B | SID164353130 |
